Results on five sequences are retold here after paper PMC13140723.

The data set concerns CiWRKY27 (Citrus ichangensis (Ichang papeda)). Briefly: EMSA. The note with it: Chemiluminescent EMSA kit (Beyotime), manufacturer's procedure, pH and temperature not stated, recombinant protein, protein details: His (pHMGWA vector), label: biotin.
The mark [1] stands for this setting: unlabeled probe competes dose-dependently.

For at least one entry, the source does not settle the construct or the ends of the probe. No signal at the amounts used counts as a negative.

In the case of “GATCGGTAGCTACTCTTCTAAAAAATCTCCACTATCCCTC (double strand) [mutant-GSTF6-probe]”, the binding result is given as “no binding”.

As for “GATCGGTAGCTACTCTTCTTTGACTTCTCCACTATCCCTC (double strand) [GSTF6-probe]”, the binding result under setting [1] is reported as “binds”.

In the case of “GCTCAATTTTTGCTTGTCAAGTTTACCGGAGACTTCATC (double strand) [RAP2.7-P4-probe]”, the binding result is given as “binds”.

As for “TCTCGCCTTTTATCTAAAAAATTTTTTTTCTTTTTTAATG (double strand) [mutant-CiCAD7-probe]”, the binding result is “no binding”.

Regarding “TCTCGCCTTTTATCTTTGACTTTTTTTTTCTTTTTTAATG (double strand) [CiCAD7-probe]”, the binding result under setting [1] was “binds”.
